Record: PubChem BioAssay AID504786 (Drosophila RNAi Screening Center, 2011)

Assay: 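Positive regulators of HIF-driven reporter output in Drosophila cells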 (primary screen)
Cell system: Drosophila S2 cells with a stable HIF luciferase reporter
Knock-down reagent: long dsRNA against Drosophila genes, about 0.2 µg dsRNA per well of a 384-well plate
Duration: three days of knock-down, then 20 h of DFO before reading
Challenge: desferrioxamine (DFO) at 100 µM, an iron chelator that mimics hypoxia, for 20 h
Measurement: 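HIF reporter luminescence in cells given 100 µM DFO for 20 h, using the mouse ldh-a hypoxia-response element, scored as per-plate z-scores; higher means greater loss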
Reading the numbers: z-score: higher = stronger loss of HIF reporter signal
In all, the deposit lists about 21,000 reagents; shown is an unselected part of those that have a named target and a result. 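Primary screen; positive scores mean lost reporter signal, so the sign may be inverted from the usual convention.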 The numbers tell different reagents against one gene apart. Reagent sequences are not shown.

For Nup205 (Nucleoporin 205kD), the entry reads z-score, replicate 1 = 0.2; z-score, replicate 2 = 1.5.
With knock-down of MED27 (Mediator complex subunit 27) the results were z-score, replicate 1 = 0; z-score, replicate 2 = -0.2.
For grim, the values are z-score, replicate 1 = 0.8; z-score, replicate 2 = -0.8.
Knock-down of CG31689 came out at: z-score, replicate 1 = 0.1; z-score, replicate 2 = 0.5.
Depletion of CG6055 resulted in: z-score, replicate 1 = -0.4; z-score, replicate 2 = -0.3.
pnut (peanut) gave z-score, replicate 1 = -0.4; z-score, replicate 2 = -0.8.

2 successive records from above:
CG6055 — z-score, replicate 1 = -0.4; z-score, replicate 2 = -0.3
pnut (peanut) — z-score, replicate 1 = -0.4; z-score, replicate 2 = -0.8

Further results follow.
Knock-down of CG8478 came out at: z-score, replicate 1 = -0.3; z-score, replicate 2 = -0.4.
With knock-down of Jon65Aiv (Jonah 65Aiv), the screen gave z-score, replicate 1 = -0.3; z-score, replicate 2 = -0.7.
With knock-down of CG9497 the results were z-score, replicate 1 = -0.3; z-score, replicate 2 = -0.4.
Knock-down of CG31089 came out at: z-score, replicate 1 = -0.3; z-score, replicate 2 = -0.6.
After knock-down of Rpn10 (Regulatory particle non-ATPase 10), the screen gave z-score, replicate 1 = 0.3; z-score, replicate 2 = 0.6.
superdeath (Suppressor of ER stress-induced death) gave z-score, replicate 1 = 0; z-score, replicate 2 = -0.2.
For Sf3a2 (Splicing factor 3a subunit 2), the values are z-score, replicate 1 = 3.2; z-score, replicate 2 = 2.7.
qm (quemao) showed z-score, replicate 1 = 0; z-score, replicate 2 = -0.9.
After knock-down of dsx-c73A (doublesex cognate 73A) #1 the results were z-score, replicate 1 = 0; z-score, replicate 2 = -0.2.
Depletion of dsx-c73A (doublesex cognate 73A) #2 resulted in: z-score, replicate 1 = -0.2; z-score, replicate 2 = -0.3.
After knock-down of dsx-c73A (doublesex cognate 73A) #3, the screen gave z-score, replicate 1 = -0.2; z-score, replicate 2 = -1.
